Source: paper PMC12786370

Chains of the proteins cited; added tags and fusions are not shown. Residues count along the entry.
UniProt P19875, residues 35-107: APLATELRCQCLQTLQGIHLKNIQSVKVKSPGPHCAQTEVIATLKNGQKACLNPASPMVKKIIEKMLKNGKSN
UniProt P67809: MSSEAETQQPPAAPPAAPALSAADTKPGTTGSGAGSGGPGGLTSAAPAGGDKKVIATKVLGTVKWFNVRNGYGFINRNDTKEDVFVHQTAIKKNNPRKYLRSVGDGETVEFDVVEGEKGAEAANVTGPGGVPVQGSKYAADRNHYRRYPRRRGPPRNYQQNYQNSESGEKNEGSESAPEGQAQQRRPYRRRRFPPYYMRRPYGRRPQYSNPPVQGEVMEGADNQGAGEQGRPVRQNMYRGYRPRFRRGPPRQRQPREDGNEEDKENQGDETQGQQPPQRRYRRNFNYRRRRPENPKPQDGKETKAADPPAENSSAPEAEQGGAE

Target: C-X-C motif chemokine ligand 2 (CXCL2), Flag-tagged, full length, overexpressed in HCC cells (UniProt P19875)
Assay: affinity purification with mass spectrometry; immunoprecipitate of CXCL2 (IP) against IgG, LC-MS/MS; cells and antibody not told in the text shown

binding: binds
Substance: Y-Box Binding Protein 1 (YBX1) in HCC cells (from UniProt P67809 1-324)

These are yes or no findings as the source states them, for the method shown. Binding seen in cells or lysates may run through a third protein. Here binding means that the protein was enriched with, or labelled near, the bait; the list need not be complete.
